Source: patent EP0346684A1, “Substituted 3-aminosydnonimines, method for their preparation and their use” (CASSELLA Aktiengesellschaft, priority 1988, dated 1989)
At least one structure is not confirmed: it was looked up by name or label, or the drawing left a doubt.

System: Spiralstreifen der Arteria pulmonalis des Meerschweinchens
Assay: Relaxation of the CaCl₂-induced contraction of potassium-depolarised spiral strips of guinea pig pulmonary artery (modified method of Godfraind and Kaba / Schüman et al)
Type: cell-based, Meerschweinchen
Settings: concentration inhibiting the contraction by 50 %; calcium-free Tyrode solution, depolarised with 40 mmol/l Kalium, contraction by 0,5 mmol/l CaCl₂; cumulative addition; mean of 4 to 6 strips

Compound | IC₅₀
CC(C)(C)N(CCN1CCOCC1)[n+]1cc(=N)o[n-]1.Cl.Cl [Beispiel 7] | 4·10⁻⁶ mol/l
CCO/C([O-])=N/c1c[n+](N2CCOCC2)no1 [Molsidomin, N-Ethoxycarbonyl-3-morpholino-sydnonimin] | 3·10⁻⁴ mol/l
